Changes are numbered by the printed parent chain. These are yes or no findings as the source states them, for the method shown. Binding can be weak; no strength is given.

B1: Chimeric 31C8 (antibody, human IgG2, kappa, V domains shown)
VH: QVQLQQSGPELVRPGASVTLSCKASGYIFIDSEMHWVKQTPVHGLEWIGAIDPETGDTVYNQKFKGKATLTADKSSSTASMELSSLTSEDSAVYYCTGSTTDYYFAYWGQGTTLTVSS
VL: DIVMTQAAFSNPVTLGTSASISCRSSKSLLHSNGIIYLYWYLQKPGQSPQLLIYQMSNLASGVPDRFSSSGSGTDFTLRISRVEAEDVGVYYCAQNLELPFTFGSGTKLEIKR
B2: Humanized 31C8-1.1 (antibody, human IgG2, kappa, V domains shown)
VH: EVQLVQSGAEVKKPGATVKISCKASGYIFIDSEMHWVQQAPGKGLEWMGAIDPETGDTVYAEKFQGRVTITADKSSSTAYMELSSLRSEDTAVYYCTGSTTDYYFAYWGQGTLVTVSS
VL: DIQMTQSPSSLSASVGDRVTITCRSSKSLLHSNGIIYLYWYQQKPGKAPKLLIYQLSNLASGVPSRFSSSGSGTDFTLTISSLQPEDFATYYCAQNLELPFTFGQGTKVEIKR
B3: Humanized 31C8-1.2 (antibody, human IgG2, kappa, V domains shown)
VH: B2 VH with E1Q, E10K, E62K, Q65K
VL: B2 VL
B4: GSK3772847 (antibody STLM208 in CN104411333, prepared in-house) (antibody, human IgG2, kappa, V domains shown)
VH: EVQLLESGGGLVQPGGSLRLSCAASGFTFSIYDMIWVRQAPGKGLEWVSSIRGEGGGTYYADSVKGRFTISRDNSKNTLYLQMNSLRAEDTAVYYCARDPWSTEGSFFVLDYWGQGTLVTVSS
VL: EIVLTQSPATLSLSPGERATLSCRASQSVDDDLAWYQQKPGQAPRLLIYDASNRATGIPARFSGSGSGTDFTLTISSLEPEDFAVYYCQQYITAPLTFGQGTKVEIKR

For the assay, the target named is ST2 (coated antigen of the cross-reactivity ELISA, Table 20) (human). Kind of assay: ELISA, plate coated with ST2. For orientation: ELISA stands for enzyme-linked immunosorbent assay.
On to B1, for which the binding entry is listed as “binds”.

For the molecule B2, the binding result was “binds”.

Consider B3, for which the binding entry was “binds”.

B4: the binding entry is given as “binds”.
